No constants are given. Whether binding was seen depends on the method and setting. Some entries that bind do so weakly or less than the wild type.
What was measured:
Assay in all cases: two-hybrid; pAD-GAL4-PCNA WT or mutant (called bait) and pBD-GAL4-partner (called prey) in strain YRG2; 10-fold serial dilutions spotted on SC-Leu-Trp-His plates, 30°C, 3 d; growth similar to WT PCNA is denoted 1
pol30-Msh6E2 = molecular target: T1, pol30-Msh6E2 (yeast, UniProt P15873 1-258, IDCL DIDADFLKIEEL to DYDRDMLKISEL)
T1 construct: PCNA (POL30), yeast; source: yeast two-hybrid fusion (pAD-GAL4, strain YRG2)
T1 sequence: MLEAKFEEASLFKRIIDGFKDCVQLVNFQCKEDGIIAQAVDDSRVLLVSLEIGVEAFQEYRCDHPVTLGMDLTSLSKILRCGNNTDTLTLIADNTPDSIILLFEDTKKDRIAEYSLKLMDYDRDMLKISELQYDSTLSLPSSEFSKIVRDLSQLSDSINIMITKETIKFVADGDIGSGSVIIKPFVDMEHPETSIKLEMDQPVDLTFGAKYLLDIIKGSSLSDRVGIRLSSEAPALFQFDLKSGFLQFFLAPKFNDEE

pol30-Msh6E6 = molecular target: T2, pol30-Msh6E6 (yeast, UniProt P15873 1-258, IDCL DIDADFLKIEEL to DYDKDLLKIIEL)
T2 construct: PCNA (POL30), yeast; source: yeast two-hybrid fusion (pAD-GAL4, strain YRG2)
T2 sequence: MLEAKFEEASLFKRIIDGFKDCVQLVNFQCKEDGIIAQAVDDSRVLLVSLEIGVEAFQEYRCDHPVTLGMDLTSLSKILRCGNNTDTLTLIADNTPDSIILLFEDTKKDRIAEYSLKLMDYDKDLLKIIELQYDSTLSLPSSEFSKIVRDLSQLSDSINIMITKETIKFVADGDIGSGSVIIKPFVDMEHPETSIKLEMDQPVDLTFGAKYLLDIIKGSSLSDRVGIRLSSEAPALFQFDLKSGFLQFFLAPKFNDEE

pol30-Pol32E5 = molecular target: T3, pol30-Pol32E5 (yeast, UniProt P15873 1-258, IDCL DIDADFLKIEEL to DADNDFLKISEL)
T3 construct: PCNA (POL30), yeast; source: yeast two-hybrid fusion (pAD-GAL4, strain YRG2)
T3 sequence: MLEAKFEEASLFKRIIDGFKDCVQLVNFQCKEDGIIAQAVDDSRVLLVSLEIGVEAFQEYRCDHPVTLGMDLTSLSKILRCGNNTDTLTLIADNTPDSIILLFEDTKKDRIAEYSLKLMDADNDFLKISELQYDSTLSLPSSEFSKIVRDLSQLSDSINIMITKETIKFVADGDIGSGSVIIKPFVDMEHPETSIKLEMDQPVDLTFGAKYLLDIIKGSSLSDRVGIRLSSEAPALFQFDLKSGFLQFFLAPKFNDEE

pol30-Rad27E31 = molecular target: T4, pol30-Rad27E31 (yeast, UniProt P15873 1-258, IDCL DIDADFLKIEEL to DGDYDVLKIREL)
T4 construct: PCNA (POL30), yeast; source: yeast two-hybrid fusion (pAD-GAL4, strain YRG2)
T4 sequence: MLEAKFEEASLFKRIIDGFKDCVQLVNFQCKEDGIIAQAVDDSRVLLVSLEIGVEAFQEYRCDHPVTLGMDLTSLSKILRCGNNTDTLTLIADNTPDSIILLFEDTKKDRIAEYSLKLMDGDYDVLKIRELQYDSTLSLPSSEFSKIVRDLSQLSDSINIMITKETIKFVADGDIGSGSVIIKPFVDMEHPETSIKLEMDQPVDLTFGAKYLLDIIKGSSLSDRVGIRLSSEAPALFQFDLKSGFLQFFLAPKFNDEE

pol30-Ung1E3 = molecular target: T5, pol30-Ung1E3 (yeast, UniProt P15873 1-258, IDCL DIDADFLKIEEL to DFDYDELKIEEL)
T5 construct: PCNA (POL30), yeast; source: yeast two-hybrid fusion (pAD-GAL4, strain YRG2)
T5 sequence: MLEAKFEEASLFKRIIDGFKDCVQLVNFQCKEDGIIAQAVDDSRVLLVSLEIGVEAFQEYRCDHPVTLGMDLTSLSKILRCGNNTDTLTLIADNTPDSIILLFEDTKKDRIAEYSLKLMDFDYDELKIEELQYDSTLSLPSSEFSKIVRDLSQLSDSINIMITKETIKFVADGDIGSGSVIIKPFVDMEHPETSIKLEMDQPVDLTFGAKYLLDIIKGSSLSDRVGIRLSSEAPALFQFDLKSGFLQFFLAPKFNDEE

Measured: binding

B1: Ung1 (natural protein, yeast, UniProt P12887 1-359, looked up)
chain: MWCMRRLPTNSVMTVARKRKQTTIEDFFGTKKSTNEAPNKKGKSGATFMTITNGAAIKTETKAVAKEANTDKYPANSNAKDVYSKNLSSNLRTLLSLELETIDDSWFPHLMDEFKKPYFVKLKQFVTKEQADHTVFPPAKDIYSWTRLTPFNKVKVVIIGQDPYHNFNQAHGLAFSVKPPTPAPPSLKNIYKELKQEYPDFVEDNKVGDLTHWASQGVLLLNTSLTVRAHNANSHSKHGWETFTKRVVQLLIQDREADGKSLVFLLWGNNAIKLVESLLGSTSVGSGSKYPNIMVMKSVHPSPLSASRGFFGTNHFKMINDWLYNTRGEKMIDWSVVPGTSLREVQEANARLESESKDP
notes: Ung1 (base excision repair), yeast; also called pBD-Ung1; source: yeast two-hybrid fusion (pBD-GAL4, strain YRG2)
binds: pol30-Msh6E2 | pol30-Msh6E6 | pol30-Pol32E5 | pol30-Rad27E31

B2: Msh6 (natural protein, yeast, UniProt Q03834 1-1242, looked up)
chain: MAPATPKTSKTAHFENGSTSSQKKMKQSSLLSFFSKQVPSGTPSKKVQKPTPATLENTATDKITKNPQGGKTGKLFVDVDEDNDLTIAEETVSTVRSDIMHSQEPQSDTMLNSNTTEPKSTTTDEDLSSSQSRRNHKRRVNYAESDDDDSDTTFTAKRKKGKVVDSESDEDEYLPDKNDGDEDDDIADDKEDIKGELAEDSGDDDDLISLAETTSKKKFSYNTSHSSSPFTRNISRDNSKKKSRPNQAPSRSYNPSHSQPSATSKSSKFNKQNEERYQWLVDERDAQRRPKSDPEYDPRTLYIPSSAWNKFTPFEKQYWEIKSKMWDCIVFFKKGKFFELYEKDALLANALFDLKIAGGGRANMQLAGIPEMSFEYWAAQFIQMGYKVAKVDQRESMLAKEMREGSKGIVKRELQCILTSGTLTDGDMLHSDLATFCLAIREEPGNFYNETQLDSSTIVQKLNTKIFGAAFIDTATGELQMLEFEDDSECTKLDTLMSQVRPMEVVMERNNLSTLANKIVKFNSAPNAIFNEVKAGEEFYDCDKTYAEIISSEYFSTEEDWPEVLKSYYDTGKKVGFSAFGGLLYYLKWLKLDKNLISMKNIKEYDFVKSQHSMVLDGITLQNLEIFSNSFDGSDKGTLFKLFNRAITPMGKRMMKKWLMHPLLRKNDIESRLDSVDSLLQDITLREQLEITFSKLPDLERMLARIHSRTIKVKDFEKVITAFETIIELQDSLKNNDLKGDVSKYISSFPEGLVEAVKSWTNAFERQKAINENIIVPQRGFDIEFDKSMDRIQELEDELMEILMTYRKQFKCSNIQYKDSGKEIYTIEIPISATKNVPSNWVQMAANKTYKRYYSDEVRALARSMAEAKEIHKTLEEDLKNRLCQKFDAHYNTIWMPTIQAISNIDCLLAITRTSEYLGAPSCRPTIVDEVDSKTNTQLNGFLKFKSLRHPCFNLGATTAKDFIPNDIELGKEQPRLGLLTGANAAGKSTILRMACIAVIMAQMGCYVPCESAVLTPIDRIMTRLGANDNIMQGKSTFFVELAETKKILDMATNRSLLVVDELGRGGSSSDGFAIAESVLHHVATHIQSLGFFATHYGTLASSFKHHPQVRPLKMSILVDEATRNVTFLYKMLEGQSEGSFGMHVASMCGISKEIIDNAQIAADNLEHTSRLVKERDLAANNLNGEVVSVPGGLQSDFVRIAYGDGLKNTKLGSGEGVLNYDWNIKRNVLKSLFSIIDDLQS
notes: Msh6 (mismatch repair), yeast; also called pBD-Msh6; source: yeast two-hybrid fusion (pBD-GAL4, strain YRG2)
binds: pol30-Pol32E5 | pol30-Rad27E31 | pol30-Ung1E3

From PMC2953525, “Subtle Alterations in PCNA-Partner Interactions Severely Impair DNA Replication and Repair” (PLoS Biology, 2010)
